Taken from: PubChem BioAssay AID1224830 (NIAID, 2016)
The deposit covers about 18,000 reagents; below is a part drawn at random. Of all reagents, about 2,900 (16%) are marked active. 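Calls are made per well; low scores hint the gene aids the LPS response, high scores that it dampens it.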 Repeated entries: four replicate wells of each siRNA pool.

Assay: 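Host factors that control LPS-induced TNF expression in human macrophages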 (primary screen)
Cells: human THP-1 monocytic leukaemia cells, TNF dual-luciferase reporter clone, PMA-differentiated to macrophage-like cells
Reagents: siRNA pool against human genes, 50 nM
Timing: LPS for 4 h, given about 3 days after siRNA transfection
Treatment: bacterial LPS (TLR4 ligand), 10 ng/ml
Read-out: 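Ratio of firefly to renilla light, scaled to the plate median and expressed as a robust z-score per replicate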
Reading the numbers: TNF reporter robust z-score: higher = stronger TNF reporter response to LPS
Active means: 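a well is active when its z-score exceeds 2.8 or falls below -1.5; control wells carry no call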

| Target gene | TNF reporter robust z-score | Call |
| --- | --- | --- |
| SCNN1B | -0.81 | inactive |
| SCNN1B | -1.16 | inactive |
| SCNN1B | -0.28 | inactive |
| SCNN1B | 0.98 | inactive |
| TMEM54 | 0.41 | inactive |
| TMEM54 | -0.25 | inactive |
| TMEM54 | -0.55 | inactive |
| TMEM54 | -0.16 | inactive |
| FOXP1 | 0.24 | inactive |
| FOXP1 | 1.79 | inactive |
| FOXP1 | 1.84 | inactive |
| FOXP1 | 1.54 | inactive |
| JRKL | -0.37 | inactive |
| JRKL | 0.39 | inactive |
| JRKL | -0.07 | inactive |
| JRKL | 0.07 | inactive |
| ZNF80 | -1.59 | active |
| ZNF80 | -1.85 | active |
| ZNF80 | -1 | inactive |
| ZNF80 | -0.43 | inactive |
| ARTN | 3.23 | active |
| ARTN | 2.67 | inactive |
| ARTN | 2.98 | active |
| ARTN | 2.45 | inactive |
| PIM1 | 0.18 | inactive |
| PIM1 | 0.09 | inactive |
| PIM1 | 0.59 | inactive |
| PIM1 | 0.87 | inactive |

Reagents listed so far marked active:
| Target gene | TNF reporter robust z-score | Call |
| --- | --- | --- |
| ZNF80 | -1.59 | active |
| ZNF80 | -1.85 | active |
| ARTN | 3.23 | active |
| ARTN | 2.98 | active |

More results follow.
| Target gene | TNF reporter robust z-score | Call |
| --- | --- | --- |
| ATP10B | 0.14 | inactive |
| ATP10B | 1.41 | inactive |
| ATP10B | 1.78 | inactive |
| ATP10B | 2.54 | inactive |
| RHOB | -1.44 | inactive |
| RHOB | -1.18 | inactive |
| RHOB | -0.92 | inactive |
| RHOB | -0.45 | inactive |
| FAM169BP | -1.18 | inactive |
| FAM169BP | -0.51 | inactive |
| FAM169BP | -0.87 | inactive |
| FAM169BP | 0.85 | inactive |
| CEP70 | 2.89 | active |
| CEP70 | 2.09 | inactive |
| CEP70 | 1.26 | inactive |
| CEP70 | -0.53 | inactive |
| FOXC1 | 1.11 | inactive |
| FOXC1 | 2.82 | active |
| FOXC1 | 0.33 | inactive |
| FOXC1 | 2.59 | inactive |
